PubChem BioAssay AID1224826, NIAID, 2016

- Test: 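Knock-downs that raise or lower Tnf reporter signal after endotoxin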 (primary screen)
- System: RAW264.7 G9 macrophages from mouse bearing reporters for p65 (GFP) and the Tnf promoter (mCherry)
- Knock-down reagent: siRNA pool against mouse genes, 100 nM
- Time to read-out: 16 h of LPS stimulation, after 2 days of siRNA transfection
- Conditions: bacterial lipopolysaccharide (Salmonella minnesota R595), 10 ng/ml
- Detection: 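Nuclear mCherry signal of the Tnf promoter reporter measured by imaging after background removal, scaled to each plate median and turned into robust z-scores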
- Direction: Tnf reporter robust z-score: higher = stronger Tnf promoter reporter signal after LPS
- Call rule: 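Called active when robust z-score is at most -1.3, matching the median of the Tlr4 knock-down control, or over 3; control wells and wells with under 50 cells never active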
- Calls: active = Tnf reporter clearly lowered or raised; inactive = no clear change in Tnf reporter
The deposit covers about 17,000 reagents; below is a part drawn at random. About 1,110 of all reagents (6.6%) count as active. 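Active means lowered or raised reporter signal; replicate intensities are raw and not normalised per plate.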 Further read-outs or replicates are left out here. Reagent sequences are not shown.

{"target gene": "Sh2b2 (SH2B adaptor protein 2)", "Tnf reporter robust z-score": -1.5, "fewer than 50 cells in well": "enough cells in well", "call": "active"}
{"target gene": "Otx2 (orthodenticle homeobox 2)", "fewer than 50 cells in well": "fewer than 50 cells per well; well left out of calls", "call": "inactive"}
{"target gene": "Rif1 (replication timing regulatory factor 1)", "Tnf reporter robust z-score": 0.49, "fewer than 50 cells in well": "enough cells in well", "call": "inactive"}
{"target gene": "Zfy1 (zinc finger protein 1, Y-linked)", "Tnf reporter robust z-score": -0.98, "fewer than 50 cells in well": "enough cells in well", "call": "inactive"}
{"target gene": "Adam30 (a disintegrin and metallopeptidase domain 30)", "Tnf reporter robust z-score": -0.04, "fewer than 50 cells in well": "enough cells in well", "call": "inactive"}
{"target gene": "Wfdc2 (WAP four-disulfide core domain 2)", "Tnf reporter robust z-score": -0.36, "fewer than 50 cells in well": "enough cells in well", "call": "inactive"}
{"target gene": "Gpat4 (glycerol-3-phosphate acyltransferase 4)", "Tnf reporter robust z-score": -0.66, "fewer than 50 cells in well": "enough cells in well", "call": "inactive"}
{"target gene": "Or7h8 (olfactory receptor family 7 subfamily H member 8)", "fewer than 50 cells in well": "fewer than 50 cells per well; well left out of calls", "call": "inactive"}
{"target gene": "Pxdc1 (PX domain containing 1)", "Tnf reporter robust z-score": 0.7, "fewer than 50 cells in well": "enough cells in well", "call": "inactive"}
{"target gene": "Luzp1 (leucine zipper protein 1)", "Tnf reporter robust z-score": 0.64, "fewer than 50 cells in well": "enough cells in well", "call": "inactive"}
{"target gene": "2900052N01Rik (RIKEN cDNA 2900052N01 gene)", "fewer than 50 cells in well": "fewer than 50 cells per well; well left out of calls", "call": "inactive"}
{"target gene": "Naglu (alpha-N-acetylglucosaminidase (Sanfilippo disease IIIB))", "Tnf reporter robust z-score": 0.62, "fewer than 50 cells in well": "enough cells in well", "call": "inactive"}
{"target gene": "Mvk (mevalonate kinase)", "Tnf reporter robust z-score": -0.41, "fewer than 50 cells in well": "enough cells in well", "call": "inactive"}
{"target gene": "5330426L24Rik (RIKEN cDNA 5330426L24 gene)", "Tnf reporter robust z-score": 1.71, "fewer than 50 cells in well": "enough cells in well", "call": "inactive"}

Entries listed so far whose gene name begins with O or o (2):
{"target gene": "Otx2 (orthodenticle homeobox 2)", "fewer than 50 cells in well": "fewer than 50 cells per well; well left out of calls", "call": "inactive"}
{"target gene": "Or7h8 (olfactory receptor family 7 subfamily H member 8)", "fewer than 50 cells in well": "fewer than 50 cells per well; well left out of calls", "call": "inactive"}
